Experimental data reported in article PMC7993993.
Positions count from the first letter of the chain named. These are yes or no findings as the source states them, for the method shown. Binding calls can cover weak binding; strength is not graded here. Tags and fused reporters may be left off the sequences shown.

What was measured:
[1] = molecular target: T1, PomZ^D90A (BACTH fusion) (M. xanthus) (UniProt Q1DEM0); assay: two-hybrid; bacterial adenylate cyclase two-hybrid (BACTH); fusions to T18 and T25 of B. pertussis adenylate cyclase; blue colonies on LB agar with X-Gal and IPTG
T1 sequence: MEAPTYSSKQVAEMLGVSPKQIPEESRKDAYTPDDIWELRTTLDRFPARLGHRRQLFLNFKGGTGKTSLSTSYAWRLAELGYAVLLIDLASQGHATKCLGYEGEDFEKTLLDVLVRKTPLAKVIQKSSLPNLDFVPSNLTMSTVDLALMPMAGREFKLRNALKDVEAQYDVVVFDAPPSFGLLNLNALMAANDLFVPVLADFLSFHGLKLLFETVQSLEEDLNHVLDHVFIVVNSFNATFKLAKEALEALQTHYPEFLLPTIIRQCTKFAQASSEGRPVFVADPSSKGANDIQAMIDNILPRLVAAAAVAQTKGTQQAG

[2] = molecular target: T2, PomZ^WT (BACTH fusion) (M. xanthus) (UniProt Q1DEM0); assay: as above
T2 sequence: T1 sequence with A90D

binding [1]: binds | binding [2]: binds
Substance: PomX^WT (BACTH fusion) (from UniProt Q1DEL9)
